Data: PubChem BioAssay AID493014 (National Center for Advancing Translational Sciences (NCATS), 2011)
Values joined by “and” are separate entries in the source; they are usually repeats but may differ in a detail not shown here. Equal entries are not always repeated. The list shows a part of the results. These are further read-outs of the screen, such as a control signal, another cell line or another target. No call is given for them. Most of these compounds were active or inconclusive in the main read-out, so they are no random draw. Words in brackets tell the shape of the fitted curve; partial curves, single points and poor fits give uncertain potencies.

Assay: qHTS Assay to Find Inhibitors of Chronic Active B-Cell Receptor Signaling
Details: ABC-DLBCL IkBa-CBG/CBR reporter, luminescence ratio (green luciferase fused to IkBa over red control in TMD8 lymphoma cells), 4 h
Outline: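 Cell line TMD8 (human ABC DLBCL), stably expressing tet-inducible CBG68-IkBa fusion and CBR; IMDM/0.5% FBS; cpd up to 46 uM; dox induction, 4 h, 37C/5% CO2; dual luminescence; green/red ratio; MG132 control.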

[1] = measured here: CBR red luminescence, cell number
[2] = measured here: IkBa-CBG green luminescence

CC1=C/C(=N\NC(=S)Nc2cccnc2)CC(C)(C)C1
AC50 [1]: 3.98 µM [rising, full curve, poor fit]
AC50 [2]: 3.16 µM [falling, single point]

Cc1ccc(NC(=O)c2ccc3c(c2)C(=O)N(c2cc(C)ccc2C)C3=O)nc1
AC50 [1]: 0.794 µM [rising, full curve, poor fit]

CCOC(=O)C(NCc1ccccc1)(NC(=O)c1ccccc1)C(F)(F)F (stereo unspecified)
AC50 [1]: 18.4 µM [rising, single point]
AC50 [2]: 20.6 µM [falling, partial curve, poor fit]

COCCNC(=S)N1CCN(c2nc(-c3ccc(F)cc3)cs2)CC1
AC50 [1]: 35.5 µM [falling, single point]

O=C(CCCc1ccccc1)Nc1nnc(C(F)(F)F)s1
AC50 [1]: 35.5 µM [falling, single point]

CCOC(=O)c1ccc(NC(=S)NCC(O)c2ccccc2)cc1 (stereo unspecified)
AC50 [1]: 11.2 µM [falling, partial curve]

O=C(Nc1nc2ccc(Cl)cc2s1)c1ccc(Br)o1
AC50 [1]: 0.366 µM [falling, full curve, poor fit]

Cc1ccc(C(=O)CC(=O)c2cc(Cl)ccc2O)cc1
AC50 [1]: 1.84 µM [rising, partial curve, poor fit]

Cc1ccc2occ(/C=N/NC(=O)c3ccccc3Br)c(=O)c2c1
AC50 [1]: 2.82 µM [falling, full curve, poor fit]

O=C(/C=C/c1ccccc1)NNC(=O)c1ccco1
AC50 [1]: 10 µM [falling, partial curve]

O=C(NC1(C(F)(F)F)N=C(c2ccccc2)NC1=O)c1ccc(Cl)cc1Cl (stereo unspecified)
AC50 [1]: 7.94 µM [rising, partial curve, poor fit]

CC(C)(C)NC(=S)NNC(=O)c1cccc(Br)c1
AC50 [1]: 3.55 µM [rising, single point]
AC50 [2]: 5.62 µM [falling, single point]

Cc1ccc(-c2nc3cc(NC(=O)C(C)C)ccc3o2)cc1
AC50 [1]: 11.6 µM [rising, partial curve, poor fit]

COc1ccc(CCN(C)Cc2ccc(C(=O)Nc3ccccc3)cc2)cc1OC
AC50 [1]: 14.1 µM [falling, single point]

CCn1ncc([N+](=O)[O-])c1C(=O)n1nc(C)cc1C
AC50 [1]: 32.6 µM [rising, single point]

Clc1ccccc1Nc1c2c(nc3ncnn13)CCC2
AC50 [1]: 14.1 µM [rising, partial curve, poor fit]

Cc1ccc2[nH]c3c(c2c1)CCNC3=O
AC50 [1]: 7.08 µM [falling, partial curve]

Cc1ccc(N2C(=O)C3C4C=CC(CC4)C3C2=O)cc1Br (stereo unspecified)
AC50 [1]: 35.5 µM [falling, partial curve, poor fit]

CC(=O)C1=C(O)C(=O)N(CCCN2CCOCC2)C1c1ccccc1[N+](=O)[O-] (stereo unspecified)
AC50 [1]: 35.5 µM [falling, single point]

Cc1ccc2c(C)c(C(=O)N(C)Cc3ccncn3)oc2c1C
AC50 [1]: 12.6 µM [rising, single point]

Clc1ccc(CSc2nnc(-c3c[nH]c4ccccc34)o2)cc1
AC50 [1]: 29.1 µM [falling, single point]

CC(=O)c1ccc(Oc2cc(C)nc(NCc3ccccc3)n2)cc1
AC50 [1]: 6.31 µM [falling, single point]

C[C@H]1CN([C@@H](C)CO)C(=O)Cc2cc(NC(=O)CCC(F)(F)F)ccc2O[C@H]1CN(C)Cc1ccc(-c2ccccc2)cc1
AC50 [1]: 20.6 µM [falling, partial curve]

O=C(CN(c1ccccc1)S(=O)(=O)c1ccc(F)cc1)NCc1cccs1
AC50 [1]: 23.1 µM [rising, single point]

OC(CN(c1ccccc1)c1ccccc1)Cn1cnc2ccccc21 (stereo unspecified)
AC50 [1]: 7.31 µM [falling, partial curve, poor fit]

O=C(Nc1ccc(S(=O)(=O)Nc2ncccn2)cc1)C1=COCCO1
AC50 [1]: 29.1 µM [rising, single point]

CCOC(=O)c1c(C)[nH]c(O)c1C=Nc1ccc(Cl)cc1
AC50 [1]: 3.16 µM [falling, partial curve, poor fit]

Cc1ccccc1NC(=O)OCc1ccccc1
AC50 [1]: 15.8 µM [falling, partial curve]

CN(C)CCCN(Cc1cc2cc3c(cc2[nH]c1=O)OCO3)C(=S)Nc1cccc(Cl)c1
AC50 [1]: 35.5 µM [falling, single point]

CC(=O)c1ccc(NC(=O)C(C)n2nc(-c3ccccc3)c3cc(Cl)ccc32)cc1 (stereo unspecified)
AC50 [1]: 23.1 µM [rising, partial curve, poor fit]

Cn1nnnc1SCc1nnc(-c2ccc(F)cc2)o1
AC50 [1]: 0.366 µM [rising, full curve, poor fit]

CC(C)CC(=O)NC(=S)Nc1nc(-c2ccccc2)cs1
AC50 [1]: 0.651 µM [rising, full curve, poor fit]

Cc1ccc2nc(N3CCN(c4ccccc4F)CC3)c(C=O)c(=O)n2c1
AC50 [1]: 11.2 µM [rising, partial curve, poor fit]

Cc1cc(N2CCN(C)CC2)nc2ccc(NC(=S)N3CCC4(CC3)OCCO4)cc12
AC50 [1]: 1 µM [falling, partial curve, poor fit]

O=C(NCc1ccc2c(c1)OCO2)c1nc(S(=O)(=O)Cc2ccccc2F)ncc1Cl
AC50 [1]: 35.5 µM [falling, single point]

CCCCOc1ccccc1NC(=O)CC1Nc2ccccc2NC1=O (stereo unspecified)
AC50 [1]: 14.1 µM [falling, single point]

COc1cc(NC(=O)Cn2ncc(Cl)c(Cl)c2=O)c(C)cc1[N+](=O)[O-]
AC50 [1]: 3.98 µM [falling, partial curve, poor fit]

O=C1c2ccccc2OC2(C=Cc3ccccc3O2)N1Cc1ccccc1 (stereo unspecified)
AC50 [1]: 29.1 µM [rising, single point]

O=C(CSc1nc2nccnc2c(=O)n1Cc1cccs1)Nc1ccccc1F
AC50 [1]: 2.51 µM [falling, full curve]

Cc1ccc(-n2ccnc2SCC(=O)c2c(N)n(C3CC3)c(=O)[nH]c2=O)cc1C
AC50 [1]: 29.1 µM [rising, single point]

COc1cc(CNC2CCCC2)cc(Cl)c1OCc1ccccc1F
AC50 [1]: 16.4 µM [falling, partial curve, poor fit]

CCOC(=O)N1CCN(C(=O)Cn2ccc3ccccc3c2=O)CC1
AC50 [1]: 0.00411 µM [rising, full curve, poor fit]

O=C(NCc1ccccc1)c1ccc2c(c1)C(=O)N(Cc1ccncc1)C2=O
AC50 [1]: 14.1 µM [rising, single point]

Cc1ccc2[nH]c(CN3CCC(CO)(CC4CCCCO4)CC3)c(C)c2c1 (stereo unspecified)
AC50 [1]: 22.4 µM [falling, partial curve, poor fit]

CC(C)Oc1ccc(C(=O)Nc2ccc(NC(=O)c3ccco3)c(Cl)c2)cc1
AC50 [1]: 35.5 µM [rising, single point]

COC(=O)c1c(-c2ccc(SC)cc2)sc2ccccc12
AC50 [1]: 20.6 µM [rising, partial curve, poor fit]

CN(CC(=O)Nc1cccc(F)c1)C(=O)c1cc(-c2ccccc2)nc2ccccc12
AC50 [1]: 29.1 µM [falling, single point]

COc1cccc(-c2csc(NC(=O)Nc3ccccc3)n2)c1
AC50 [1]: 35.5 µM [falling, single point]

Cc1cccc(N=C2NC(=O)/C(=C/c3cccn3C)S2)c1
AC50 [1]: 5.62 µM [falling, partial curve, poor fit]

Cc1ccccc1-c1nc(C#N)c(N2CCCCC2)o1
AC50 [1]: 7.94 µM [rising, partial curve, poor fit]

O=C(O)c1ccc(-n2nc(C(F)(F)F)c3c2CCCC3)cc1
AC50 [1]: 29.1 µM [falling, single point] and 11.2 µM [falling, partial curve]

COc1cccc(-c2nc3ccc(O)cc3c(=O)o2)c1
AC50 [1]: 0.562 µM [falling, full curve, poor fit]

O=C(Nc1ccccc1)c1cccc(S(=O)(=O)Oc2ccc([N+](=O)[O-])cc2)c1
AC50 [1]: 29.1 µM [falling, single point]

CCC1=Nc2cc(C(=O)NCc3ccccc3OC)ccc2Sc2ccc(Cl)cc21
AC50 [1]: 1.58 µM [rising, full curve, poor fit]

N#CCC(=O)Nc1ccc(C(=O)OCC(=O)NCCCc2ccccc2)cc1
AC50 [1]: 35.5 µM [falling, single point]

Cc1c(C#N)c(N)nc(Cl)c1C#N
AC50 [1]: 0.447 µM [falling, full curve, poor fit]

Cc1nc2ccc(NC(=O)c3cccs3)cc2c(=O)n1Cc1ccc(Cl)cc1
AC50 [1]: 2.59 µM [falling, partial curve, poor fit]

Cc1n[nH]c(=S)n1/N=C/c1ccc(Br)o1
AC50 [1]: 1 µM [falling, full curve]

COC(=O)C1Sc2[nH]c(=O)sc2C(c2ccc(Cl)cc2)C1C(=O)OC (stereo unspecified)
AC50 [1]: 7.94 µM [rising, partial curve]

CN(C)S(=O)(=O)c1ccc(NC(=O)c2cc(-c3cccs3)nc3ccccc23)cc1
AC50 [2]: 2.31 µM [rising, full curve, poor fit]

O=C(CN1C(=O)c2ccccc2S1(=O)=O)N1CCc2ccccc21
AC50 [1]: 0.0891 µM [falling, full curve, poor fit]

CCN(CC)CCn1c(/N=C/c2cc(Br)ccc2O)nc2ccccc21
AC50 [1]: 11.6 µM [falling, partial curve]

O=C(c1cc(COc2ccc(F)cc2Cl)on1)N1CCCCCC1
AC50 [1]: 8.91 µM [rising, partial curve, poor fit]
